Article PMC3999190
No constants are given. Whether binding was seen depends on the method and setting. Binding can be weak; no strength is given. Sequences can lack the tags named with a protein.

Molecular target: MBP-tagged viral p33 protein (the C-terminal portion) (TBSV)
Experiment: pull-down; MBP-tagged p33 portions immobilized on amylose columns, incubated with 15 µg purified His6-Vps4p or His6-Vps4(101-437) for 1 h at 4°C, eluted with 10 mM maltose; anti-His Western blot; both purified

B1: His6-tagged Vps4p purified from E. coli (protein, UniProt P52917 1-437)
chain: MSTGDFLTKGIELVQKAIDLDTATQYEEAYTAYYNGLDYLMLALKYEKNPKSKDLIRAKFTEYLNRAEQLKKHLESEEANAAKKSPSAGSGSNGGNKKISQEEGEDNGGEDNKKLRGALSSAILSEKPNVKWEDVAGLEGAKEALKEAVILPVKFPHLFKGNRKPTSGILLYGPPGTGKSYLAKAVATEANSTFFSVSSSDLVSKWMGESEKLVKQLFAMARENKPSIIFIDEVDALTGTRGEGESEASRRIKTELLVQMNGVGNDSQGVLVLGATNIPWQLDSAIRRRFERRIYIPLPDLAARTTMFEINVGDTPCVLTKEDYRTLGAMTEGYSGSDIAVVVKDALMQPIRKIQSATHFKDVSTEDDETRKLTPCSPGDDGAIEMSWTDIEADELKEPDLTIKDFLKAIKSTRPTVNEDDLLKQEQFTRDFGQEGN
binding: binds
